The record followed here is paper PMC10787008.

For assay [1], the target named is T1, Flag-tagged (in C-terminal) human CHCHD2, doxycycline-inducible in CHCHD2 KO hESCs (KO-iC2) (human) (UniProt Q9Y6H1).
T1 sequence: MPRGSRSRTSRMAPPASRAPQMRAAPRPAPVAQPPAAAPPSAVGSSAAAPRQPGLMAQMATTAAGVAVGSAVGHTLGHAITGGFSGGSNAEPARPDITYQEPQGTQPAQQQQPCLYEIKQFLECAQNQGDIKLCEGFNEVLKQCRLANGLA
Nature of the assay: co-IP; CHCHD2 immunoprecipitated from hESC lysates (1 mg total protein, 2 ug antibody, 4 °C 16 h, Protein-A or G agarose, washes in tissue lysis buffer), immunoblot for BCL-xL; WT and CHCHD2 KO hESCs with Bcl-xL-Flag (Fig. 7A) and KO-iC2 hESCs after Dox with Bcl-xL-Flag (Fig. 7B).

Assay [2] has as its target T2, Coiled-coil-helix-coiled-coil-helix domain containing 2 (CHCHD2), endogenous in WT hESCs (human (endogenous in H9 hESCs)) (UniProt Q9Y6H1).
T2 sequence: T1 sequence
The description is as above.

These are yes or no findings as the source states them, for the method shown. Binding seen in cells or lysates may run through a third protein. For part of these data: Where a sequence is shown, tags or fusion partners need not be part of it.

“BCL-xL with FLAG tag, ectopically expressed in hESCs (from UniProt Q07817-1 1-233)”: the binding entry in assay [1] and in assay [2] was “no binding” throughout. For the substance “BCL-xL, endogenous in hESCs (from UniProt Q07817-1 1-233)”, the binding result in assay [2] is given as “no binding”.
